Earlier results in patent EP1828393B1 (priority 2004, dated 2006).
Some of these results come from one statement about several compounds together. For at least one compound, name, drawing or mass did not settle the structure.

System: A. facilis 72W nitrilase
Conditions: 1.0 mM concentrations; cited from earlier work

Structure (SMILES): [Cl][Cu][Cl] [copper chloride]
- A. facilis 72W nitrilase enzyme activity: major decreases
